According to PubChem BioAssay AID652054 (National Center for Advancing Translational Sciences (NCATS), 2013):
Values joined by “and” are separate entries in the source; they are usually repeats but may differ in a detail not shown here. Identical values can stand only once. In all, about 360,000 compounds went through this assay and about 9,100 (2.5%) were called active. The shares of active, inactive and inconclusive entries below differ from those in the screen. Rule as the data show it: active = max response below about -50%; inconclusive = no clear call, values can overlap the other calls; inactive = above that.

Protein sequences, listed by entry. Tags and fused reporters are not part of them.
UniProt P35462, whole entry, looked up: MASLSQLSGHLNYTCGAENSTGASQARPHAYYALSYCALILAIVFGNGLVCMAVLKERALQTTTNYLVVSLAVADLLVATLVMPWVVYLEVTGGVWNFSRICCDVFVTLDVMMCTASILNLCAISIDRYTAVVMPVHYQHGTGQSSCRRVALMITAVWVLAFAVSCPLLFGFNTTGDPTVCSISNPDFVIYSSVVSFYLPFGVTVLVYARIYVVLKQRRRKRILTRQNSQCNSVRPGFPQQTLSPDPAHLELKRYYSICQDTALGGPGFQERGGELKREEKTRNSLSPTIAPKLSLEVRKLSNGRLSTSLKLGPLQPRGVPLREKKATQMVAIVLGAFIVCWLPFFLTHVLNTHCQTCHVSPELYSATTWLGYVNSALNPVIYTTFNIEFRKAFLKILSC

What follows are molecules tested against D(3) dopamine receptor (Homo sapiens) (UniProt P35462) (assay: qHTS of D3 Dopamine Receptor Antagonist: qHTS). Details: D3R cells, DiscoveRx beta-arrestin luminescence, antagonist mode; active compounds read low.
Summary of the method: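 Cells expressing the human receptor were seeded at 1500 cells/well, incubated overnight at 37 degrees C in 5% CO2, then exposed to library compounds with dopamine controls for 90 minutes at 37 degrees C before luminescent detection.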
% is scaled to controls: 0 for no effect and ±100 for the full control effect.

Compound	max response, negative = inhibition
Cc1oc2c(C)c(O)ccc2c(=O)c1-c1cnn(-c2ccccc2)c1	inactive: 6.29%
O=C(O)C[C@H]1c2cc(F)ccc2S(=O)(=O)N1C1CCN(Cc2ccccc2)CC1	inconclusive: -49.4%
CC1CCN(CC(=O)N2CCCc3c2c(=O)oc2ccc(OCc4ccccc4)cc32)CC1	inconclusive: -44.4%
O=C(O)CCCCCNC(=O)CCn1cnc2ccccc2c1=O	inactive: -23.4%
O=S(=O)(c1ccc(F)cc1)N1CCN(c2ccccc2)CC1	inconclusive: -32.6%
COCC(C)OC(=O)/C(C#N)=C\c1coc2ccc(C)cc2c1=O (centres undefined)	inconclusive: -44%
COc1ccc(C(=O)CC(=O)C(=O)Nc2ccc(C)cc2Cl)cc1	active: -64%
CC(C)NC(=O)C1(C)CN(S(C)(=O)=O)CC(=O)N1CCCn1ccnc1 (centres undefined)	inactive: 5.57%
C/C(CC(=O)Nc1ccc(OCc2ccccc2)cc1)=N\NC(=O)C(=O)Nc1ccc(C)c(Cl)c1	inactive: -0.854%
CC[C@]12c3[nH]c4ccccc4c3CCN1C(=O)C(CC(=O)NCCCOC)C[C@@H]2C(=O)N1CCN(C(=O)c2ccco2)CC1 (some centres undefined)	inconclusive: -36.3%
CN(C)S(=O)(=O)N(CC(=O)Nc1ccc(F)c(F)c1)c1ccccc1	inconclusive: -33.3%
O=C(CN1CCN(S(=O)(=O)c2ccccc2)CC1)Nc1ccc2c(c1)CCC2	active: -53.1%
O=C(c1ccccc1F)N1CCCc2ccccc21	inactive: 5.77%
Fc1ccc(C(c2nnnn2C2CCCC2)N2CCN(Cc3ccncc3)CC2)cc1 (centres undefined)	inconclusive: -34.1%
O=C(NCCC1=CCCCC1)C1CC(=O)N(C2CCCCC2)C1 (centres undefined)	inconclusive: -40.2%
COc1cc([N+](=O)[O-])ccc1NC(=O)NCC1CCN(Cc2ccc(Cl)cc2)CC1	active: -72.5%
O=C(O)c1cc2ccccc2c(N=Nc2cccnc2)c1O	inconclusive: -37.9%
CC(=O)N1CC[n+]2c(-c3ccc([N+](=O)[O-])cc3)csc21	inconclusive: -35.4%
COc1ccc(NC(=O)CO/N=C2\CCCc3nonc32)cc1	inconclusive: -34.1%
CN(C)c1cc[n+](CC(=O)N2CCCc3ccccc32)cc1	inconclusive: -36.2%
OC(COC1CCCCC1)CN1CCCCC1 (centres undefined)	active: -71.7%
S=C1NCCN1CC1CCN(CC2CCCC2)CC1	inconclusive: -47.1%

Compound	max response, negative = inhibition
N=c1n(CCN2CCCCC2)c2ccccc2n1CC(O)c1ccc(Cl)c(Cl)c1 (centres undefined)	inconclusive: -32.9%
CC1CCN(CCCNC(=O)c2ccc(CSCc3cccc(Cl)c3)o2)CC1	active: -62%
COc1ccc(-c2cc(-c3nc4ccccn4c3NCc3ccccc3)ccc2OC)cc1	inactive: -16.7%
CCC(C(=O)NC1CCCC1)N(C(=O)c1snc(C(N)=O)c1N)c1ccc(C)cc1C (centres undefined)	inactive: 6.76%
CCN(CC)CC(O)COc1ccccc1C(=O)CCc1ccccc1 (centres undefined)	inactive: -21.4%
O=C(c1ccccc1)c1ccc(N2CCOCC2)c(F)c1	inconclusive: -30.7%
Cc1ccc(Nc2nc3nonc3nc2N(C)C)cc1	inconclusive: -42.8%
CC(C)(CO)NC12CC3CC(CC(C3)C1)C2	inactive: -13.7%
COc1ccc(Cl)cc1C(=O)NNC(=O)c1csc(N2CCOCC2)n1	inactive: 0.923%
CC(=O)OC(C(=O)NCS(=O)(=O)c1ccc(C)cc1)c1cccnc1 (centres undefined)	inconclusive: -35.3%
COc1ccc(CNC(=O)C[C@H]2C[C@H](C(=O)N3CCOCC3)[C@@]3(CCC4CCCC4)c4[nH]c5cc(-c6ccco6)ccc5c4CCN3C2=O)cc1OC	inconclusive: -43.6%
N=c1c2c(-c3ccccc3)c(-c3ccccc3)n(Cc3ccco3)c2ncn1Cc1ccco1	inconclusive: -41%
O=C(c1ccco1)N1CCN(CCCCOc2cccc3ccccc23)CC1	inconclusive: -41%
COc1cc2[nH]c(=S)n(C3CC3)c(=O)c2cc1OC	active: -58.5%
O=C(Nc1cccc(N=Cc2cc(Br)cc(Br)c2O)c1)c1ccco1	active: -61.1%
COCc1nnc(NS(=O)(=O)c2ccc([N+](=O)[O-])cc2)s1	active: -58.4%
CC1CN(C(=O)N2c3ccccc3Sc3ccccc32)C(C)CC1=O (centres undefined)	inconclusive: -44.4%
CC(C)N(Cc1nc(-c2ccc(Cl)cc2)no1)C(=O)C12CC3CC(CC(C3)C1)C2	inactive: 3.13%
O=C(C(=Cc1ccccc1)CN1CCCCC1)c1ccccc1	active: -91.4%
Cc1ccc2[nH]c(=O)c(CN(Cc3nnnn3C3CCCC3)C3CCCCC3)cc2c1	inactive: -10.2%
Clc1ccc(SCCOCCN2CCCCC2)cc1	active: -79.8%
COc1cc(N2C(=O)C=CC2=O)ccc1N1C(=O)C=CC1=O	active: -67.9%

Compound	max response, negative = inhibition
CCC(CNC(=O)c1c(C)nn(-c2ccccc2)c1Cl)c1ccccc1 (centres undefined)	inactive: -21.2%
CC1(C)CCCC2=C1CC1C(=O)N(c3ccccc3)C(=O)C1C2 (centres undefined)	inconclusive: -32.9%
COc1cccc2sc(Nc3nnc(-c4cccs4)o3)nc12	inactive: -4.94%
Oc1cccc(C2c3[nH]c4ccccc4c3CCN2Cc2ccc3c(c2)CCO3)c1 (centres undefined)	inactive: 3.46%
CC(=O)Nc1c(C(=O)NCc2ccccc2)nnn1Cc1ccccc1	active: -55.6%
Cn1c(CCN2CCCCC2)nc2cc(NS(=O)(=O)c3ccc(Cl)cc3)ccc21	active: -72.5%
O=C(Cc1ccc(-c2ccccc2)cc1)NCCN1CCOCC1	inconclusive: -37.9%
CCCCCCCCCC(=O)N1CCN(c2cc3c(cc2F)c(=O)c(C(=O)O)cn3CC)CC1	inconclusive: -41%
CC(C)(C)C1CCC(=NNS(=O)(=O)c2ccc(Br)cc2)CC1 (centres undefined)	inconclusive: -39.8%
Cc1coc2c(C)c3oc(=O)c(CCC(=O)N4C[C@H]5C[C@@H](C4)c4cccc(=O)n4C5)c(C)c3cc12	inactive: 2.63%
CC(C)(C)C(=O)N1CCN(c2ccc(NC(=O)c3ccc([N+](=O)[O-])o3)cc2)CC1	inconclusive: -46.2%
CC(CN1CCCCC1)OC(=O)Cc1ccc(Cl)cc1 (centres undefined)	active: -58.3%
Nc1cccc(-c2cc3ccccc3oc2=O)c1	inactive: -0.935%
COc1cccc(CN2CCC(C)(Oc3cccc(Cl)c3)C2)c1OC (centres undefined)	inconclusive: -43.6%
O=C(CCN1C(=O)COc2ccccc21)NCCN1CCN(c2cccc(Cl)c2)CC1	active: -68.8%
O=C(Nc1ccc(F)c(F)c1)c1cccnc1	inconclusive: -45.1%
COc1cc(OC)c(-c2c3cc(O)c(=O)cc-3oc3cc(O)c(O)cc23)cc1OC	active: -77%
Cc1cccc2c(C(=O)O)c3cccc(C)c3nc12	inconclusive: -36.6%
CN(C)CCCOc1cccc(Cl)c1	inconclusive: -31.1%
CCN(CC)CCNC(=O)c1ccc2c(=O)n(C3CCCC3)c(=S)[nH]c2c1	inactive: -18.8%
O=S1(=O)CC(N2CCSCC2)CN1Cc1cn(Cc2ccc(Cl)cc2)nn1 (centres undefined)	inactive: -4.83%
Cc1c(CN(C)C)c2c(n1Cc1ccccc1)C(=O)c1ccccc1-2	inconclusive: -41.4%
CCCN1C(=O)S/C(=C/c2ccc(N3CCOCC3)o2)C1=O	inactive: -13.4%

Compound	max response, negative = inhibition
Cc1cc(C)c(C#N)c(N2CCN(c3ccc(F)cc3)CC2)n1	inactive: 8.34%
O=C1NCC(O)=C1C=NC12CC3CC(CC(C3)C1)C2	inactive: 2.03% and inactive: -20.6%
CC(C)Cc1nc(N2CCN(C(=O)c3ccccc3)CC2)c(C#N)c2c1CCC2	inactive: 16.1%
Cc1ccccc1-n1nc(C)c2cc(C(=O)N3CCOCC3)sc21	inconclusive: -45.6%
COc1ccc(C(=O)N/N=C(\c2ccccc2)c2ccccn2)cc1	active: -56.3%
Cc1ccc(NC(=O)CN2CCc3cc4c(cc3C2)OCCCO4)cc1	inconclusive: -42.8%
Cc1csc(NC(=O)Cc2coc3cc(C)c(C(C)C)cc23)n1	inconclusive: -38%
COC(=O)c1cc2occc2n1Cc1ccc(Cl)cc1	inconclusive: -30.6%
Oc1ccc(/C=N/Nc2nccnc2Cl)c(O)c1	inactive: 3.46%
CCOC(=O)C1=C(C)Nc2ncnn2C1/C=C/c1ccccc1 (centres undefined)	inconclusive: -35.3%
O=C(CCN1CCCCCC1)Nc1ccc2c(c1)OCCO2	inactive: 5.45%
CC1(C2CC2)NC(=O)N(CC(=O)N2CCN(c3cccc(C(F)(F)F)c3)CC2)C1=O (centres undefined)	inactive: 0%
Cc1ccc(-n2c(C)cc(/C([O-])=C(/C(=S)Nc3ccc(F)c(Cl)c3)[n+]3ccccc3)c2C)cc1	inconclusive: -38.7%
Cc1cccc(C)c1NC(=O)c1ccc(N2CCCC2=O)cc1	inconclusive: -30.9%
Cc1cc(Cl)ccc1-n1c(-c2cccnc2)n[nH]c1=S	inconclusive: -38%
CCOC(=O)Cn1c(=O)oc2cc(S(=O)(=O)Nc3c(C)cc(C)cc3C)ccc21	inconclusive: -32.7%
O=C(Cc1cccs1)N1CCN(S(=O)(=O)c2cc(Cl)ccc2Cl)CC1	inactive: -1.83%
NC(=NC(=O)c1cccc(C(F)(F)F)c1)c1ccc(C(F)(F)F)cn1	inconclusive: -30.4%
Cc1ccc2nc(C3CCCCC3)c(CC(C)(C)C)n2c1	inactive: 33%
Cc1ccn2c(=O)nc(SCC(=O)N3CCC(Cc4ccccc4)CC3)nc2c1	inconclusive: -44.5%
